Laboratory results taken from paper PMC10069784.
Results are given in words; binding and its absence hold for the method and conditions named. In cells and extracts the contact can be indirect. Some binding calls cover weakened binding; strength is not graded here.

Chains of the proteins cited; added tags and fusions are not shown.
UniProt P04107: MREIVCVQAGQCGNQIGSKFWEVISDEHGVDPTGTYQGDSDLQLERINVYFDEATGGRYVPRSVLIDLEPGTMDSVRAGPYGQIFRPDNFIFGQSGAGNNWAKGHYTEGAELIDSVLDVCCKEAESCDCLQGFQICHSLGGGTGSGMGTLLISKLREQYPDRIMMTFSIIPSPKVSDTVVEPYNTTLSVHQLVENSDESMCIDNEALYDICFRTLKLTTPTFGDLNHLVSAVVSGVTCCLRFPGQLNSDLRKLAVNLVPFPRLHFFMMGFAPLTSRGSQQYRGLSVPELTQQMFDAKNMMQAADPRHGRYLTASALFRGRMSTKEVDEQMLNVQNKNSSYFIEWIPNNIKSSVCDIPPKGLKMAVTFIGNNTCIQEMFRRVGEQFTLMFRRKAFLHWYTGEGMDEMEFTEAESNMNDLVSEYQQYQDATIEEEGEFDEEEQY

Molecular target: GST-fused β-tubulin (T. brucei) (UniProt P04107)
Experiment: pull-down; GST-β-tubulin on Glutathione Sepharose 4B beads incubated with cleared trypanosome cell lysate containing CRK2-3HA for 1 h at 4°C; lysis/wash buffer 25 mM Tris-HCl pH 7.6, 150 mM NaCl, 1 mM DTT, 1% Nonidet P-40; six washes; anti-HA immunoblot; only the target purified

binding: binds
B1: CRK2-3HA (enzyme, UniProt P54665 1-345)
chain: MQVQVQEGQTACDGSLRPLPSAGPASFVPRSLRPAPLRGTSTPDRYSRIEKVGEGSYGIVYKCHDNFTGRTVAMKRIPLIVNDGGVPSTAVREVSLLRELNHPYVVRLLDVVLHEAKLLLIFEYMEQDLQGMLKQRNTAFVGGKLRRIMFQLLLGLHECHSRRFVHRDIKPSNILIDRKESVVKLADFGLGRAFRVPLQTYTTEVMTLWYRAPEVLLGDKQYLPAVDVWSMGCVFAELARRRSLFAGDTAINQLFSIFQLLGTPTEATWRGVTSLPHHNVNFPRWTAKPLRTAVPALDDDGVDLLRRMLCYNPRERITAYEALQHSYFDEVREEEVEKLMRFNGA
